For one molecule, Plasma concentration, PO1 results are on record in patent US9969747B2 (Constellation Pharmaceuticals, Inc., priority 2014, dated 2018).

A short description of the series: Oral pharmacokinetics in male Sprague Dawley rats, suspension in 0.5% Methylcellulose. Format: in vivo. The following applies: 10 mg/Kg single oral dose, group value.

Further values from the same series stand in other lists.

Turning to `Cc1noc2c1-c1ccccc1C(c1ccc(Cl)cc1)=N[C@H]2CC(N)=O` [monohydrate Form A, 2-((4S)-6-(4-chlorophenyl)-1-methyl-4H-benzo[c]isoxazolo[4,5-e]azepin-4-yl)acetamide], the Plasma concentration, PO1 (0.250 h) worked out at 907 ng/mL and the Plasma concentration, PO1 (0.500 h) is 1550 ng/mL.
